Experimental data as given in the supplement of paper PMC12823440, “Inhibitors supercharge kinase turnover through native proteolytic circuits” (Nature, 2025).
Counter-ions that a name gives are not always drawn. This is one part of the list. Hit calls seldom repeat between salt and free forms of one compound.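 Kinases, fused to nanoluciferase, were expressed in K562 cells; luminescence was measured every 4 h from 2 to 18 h as percent of control (DMSO = 100%, positive control = 0%). A time point is decreased if signal falls significantly (2 sigma). Hits were called by the authors by a rule that is not shown; the count of time points alone does not decide it.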

Amino acid sequences for entries named in this document (tags omitted). A change or cut given only in a name is not applied to a line headed by its entry.
UniProt P07947, whole entry, looked up: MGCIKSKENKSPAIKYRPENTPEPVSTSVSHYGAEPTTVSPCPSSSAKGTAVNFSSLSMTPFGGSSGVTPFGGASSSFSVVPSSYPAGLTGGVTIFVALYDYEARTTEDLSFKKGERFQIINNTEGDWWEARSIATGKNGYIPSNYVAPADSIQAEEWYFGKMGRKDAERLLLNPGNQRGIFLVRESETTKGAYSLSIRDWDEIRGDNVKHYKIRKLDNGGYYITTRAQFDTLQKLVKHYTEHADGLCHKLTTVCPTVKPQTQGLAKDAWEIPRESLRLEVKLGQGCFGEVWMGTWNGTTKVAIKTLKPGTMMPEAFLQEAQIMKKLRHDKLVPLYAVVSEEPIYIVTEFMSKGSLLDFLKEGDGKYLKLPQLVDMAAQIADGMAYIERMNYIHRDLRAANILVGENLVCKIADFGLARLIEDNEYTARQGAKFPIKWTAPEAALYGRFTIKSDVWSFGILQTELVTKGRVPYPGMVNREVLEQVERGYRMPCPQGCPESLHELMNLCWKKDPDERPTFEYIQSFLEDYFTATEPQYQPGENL
UniProt P43403: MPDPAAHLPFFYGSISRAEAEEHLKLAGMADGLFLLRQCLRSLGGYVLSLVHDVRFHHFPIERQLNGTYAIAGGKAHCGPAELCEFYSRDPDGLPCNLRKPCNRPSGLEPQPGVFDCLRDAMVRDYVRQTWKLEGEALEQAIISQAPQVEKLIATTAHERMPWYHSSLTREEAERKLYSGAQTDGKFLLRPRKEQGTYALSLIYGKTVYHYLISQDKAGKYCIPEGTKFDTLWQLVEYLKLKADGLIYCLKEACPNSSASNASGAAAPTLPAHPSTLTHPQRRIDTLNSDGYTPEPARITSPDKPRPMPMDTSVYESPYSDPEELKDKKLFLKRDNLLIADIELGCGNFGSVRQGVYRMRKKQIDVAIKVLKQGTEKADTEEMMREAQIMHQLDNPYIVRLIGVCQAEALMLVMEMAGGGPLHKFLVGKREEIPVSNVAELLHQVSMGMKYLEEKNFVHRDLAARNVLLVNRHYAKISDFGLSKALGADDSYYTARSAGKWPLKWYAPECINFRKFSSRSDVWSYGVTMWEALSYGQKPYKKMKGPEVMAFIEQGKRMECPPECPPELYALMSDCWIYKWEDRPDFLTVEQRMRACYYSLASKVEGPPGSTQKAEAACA
UniProt P11802: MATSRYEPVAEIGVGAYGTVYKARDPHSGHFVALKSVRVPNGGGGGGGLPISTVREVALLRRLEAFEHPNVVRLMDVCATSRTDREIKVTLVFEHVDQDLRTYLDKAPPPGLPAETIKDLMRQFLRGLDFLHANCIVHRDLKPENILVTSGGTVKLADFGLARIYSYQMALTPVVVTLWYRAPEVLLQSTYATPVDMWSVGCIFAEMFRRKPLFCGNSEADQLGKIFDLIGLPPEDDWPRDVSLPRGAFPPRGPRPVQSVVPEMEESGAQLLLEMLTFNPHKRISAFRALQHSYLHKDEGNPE
UniProt P50613: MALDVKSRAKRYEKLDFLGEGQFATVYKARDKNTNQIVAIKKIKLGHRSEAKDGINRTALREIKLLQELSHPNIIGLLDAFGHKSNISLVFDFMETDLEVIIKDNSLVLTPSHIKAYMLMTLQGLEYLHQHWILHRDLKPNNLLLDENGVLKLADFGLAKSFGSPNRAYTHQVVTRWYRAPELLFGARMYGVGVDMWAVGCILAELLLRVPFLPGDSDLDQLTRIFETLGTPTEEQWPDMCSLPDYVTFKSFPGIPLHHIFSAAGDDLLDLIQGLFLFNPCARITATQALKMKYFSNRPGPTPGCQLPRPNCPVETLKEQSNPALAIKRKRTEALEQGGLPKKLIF
UniProt P50750, whole entry: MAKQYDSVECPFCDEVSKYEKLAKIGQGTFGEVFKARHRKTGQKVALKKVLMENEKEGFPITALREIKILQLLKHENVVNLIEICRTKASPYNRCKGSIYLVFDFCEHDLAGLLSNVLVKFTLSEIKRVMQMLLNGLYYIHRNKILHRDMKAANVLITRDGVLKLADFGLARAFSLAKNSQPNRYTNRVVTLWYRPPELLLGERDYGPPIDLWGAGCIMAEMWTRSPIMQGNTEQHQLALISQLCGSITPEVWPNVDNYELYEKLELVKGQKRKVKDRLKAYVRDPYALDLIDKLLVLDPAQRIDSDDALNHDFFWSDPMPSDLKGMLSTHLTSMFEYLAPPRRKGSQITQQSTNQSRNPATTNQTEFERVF

Assays:
Details in all cases: K562; 2-18 h
YES1 = YES1 (UniProt P07947); assay: number of time points (of 5) at which kinase-Nluc abundance scored as decreased, DMSO-normalised (count); higher = more persistent destabilization
ZAK = ZAK (UniProt Q9NYL2); assay: as above
ZAP70 = ZAP70 (UniProt P43403); assay: as above
CDK4 = CDK4 (UniProt P11802); assay: number of time points (of 4; 2 h point missing) at which kinase-Nluc abundance scored as decreased, DMSO-normalised (count); higher = more persistent destabilization
CDK7 = CDK7 (UniProt P50613); assay: as above
CDK9 = CDK9 (UniProt P50750); assay: as above

Measured: number of time points

N#C/C(=C\c1ccc(O)c(O)c1)C(=O)NCCCc1ccccc1 (10 µM)
0: all assays above

N#C/C(=C\c1ccc(O)c(O)c1)C(=O)NCc1ccccc1 (10 µM)
0: all assays above

Oc1ccc(-c2nc(-c3ccc(F)cc3)c(-c3ccncc3)[nH]2)cc1 (2.5 µM)
0: all assays above

Cc1cc(N2CCOCC2)cc2[nH]c(-c3c(NC[C@@H](O)c4cccc(Cl)c4)cc[nH]c3=O)nc12 (10 µM)
2: YES1
3: CDK7
0: all other assays above

CNc1nc(-c2ccc3c(N)n[nH]c3c2)cc(N2C[C@@H](C(=O)NC3CCCCC3)CC[C@H]2C)n1 (10 µM)
0: all assays above

CC(C)n1cnc2c(NCc3cccc(C(F)(F)F)c3)ncnc21 [Longdaysin] (10 µM)
0: all assays above

CN1CCN(C2CCN(C(=O)Nc3cc(Oc4ccc(NC(=O)C5(C(=O)Nc6ccc(F)cc6)CC5)c(F)c4)ccn3)CC2)CC1 [Golvatinib] (2.5 µM)
2: CDK7
0: all other assays above

CCn1c(=O)c2cc(C(N)=O)c(N)nc2n(C2CC2)c1=O (10 µM)
0: all assays above

CCN1CCN(c2ccc(Nc3cc(N(C)C(=O)Nc4c(Cl)c(OC)cc(OC)c4Cl)ncn3)cc2)CC1 [Infigratinib] (10 µM)
0: all assays above

Cn1nc(C(C)(C)C)cc1NC(=O)Nc1ccc(Oc2ccncc2)cc1 (10 µM)
4: CDK7
0: all other assays above

COc1cc2ncnc(Nc3cccc(Cl)c3F)c2cc1OC(=O)N1CCN(C)C[C@H]1C [Zorifertinib] (10 µM)
0: all assays above

Cc1ccc2c(Nc3cccc(OC(F)(F)F)c3)nccc2c1Nc1ncccc1-c1ncnc2[nH]cnc12 (10 µM)
0: all assays above

CC(C)(/C=C(\C#N)C(=O)N1CCC[C@@H](n2nc(-c3ccc(Oc4ccccc4)cc3F)c3c(N)ncnc32)C1)N1CCN(C2COC2)CC1 (2.5 µM)
0: all assays above

COc1cc(C(=O)NC2CCN(C)CC2)c(F)cc1Nc1ncc2c(n1)N(C1CCCC1)CC(F)(F)C(=O)N2C [TAK-960 (dihydrochloride)] (2.5 µM)
0: all assays above

Cc1nc(-c2cnc(NC(C)C)n(C)c2=O)ccc1Oc1ccnc(-c2cnn(C)c2)c1 (2.5 µM)
0: all assays above

Nc1nc(N)c(N=O)c(OCC2CCCCC2)n1 (10 µM)
0: all assays above

CN1CCC(Nc2ncc3ncnc(Nc4ccc(F)c(Cl)c4)c3n2)CC1 [Falnidamol] (10 µM)
0: all assays above

COc1ccc(NC(=O)N2CCN(c3nc(N)nc4c3cnn4C)[C@@H](C)C2)c(C)c1 (10 µM)
0: all assays above

COc1cc(C)c(Sc2cnc(NC(=O)c3ccc(CNC(C)C(C)(C)C)cc3)s2)cc1C(=O)N1CCN(C(C)=O)CC1 (stereo not drawn) (2.5 µM)
0: all assays above

CCCCOc1c(C(=O)c2c(F)cc(C)cc2F)c[nH]c2nncc1-2 (10 µM)
0: all assays above

COc1cc(C(=O)NC2CCN(C)CC2)ccc1Nc1ncc2c(n1)N(C1CCCC1)CC(F)(F)C(=O)N2C (10 µM)
0: all assays above

COc1cc2c(Nc3ccc(Br)cc3F)ncnc2cc1OCCn1ccnn1 (10 µM)
0: all assays above

O=C1NCCc2[nH]c(-c3ccnc(-c4cnc5ccccc5c4)c3)cc21 (10 µM)
0: all assays above

N#Cc1ccc2[nH]c(O)c(-c3ccc(CN4CCOCC4)cn3)c2c1 (10 µM)
0: all assays above

CC(C)(C)c1cc(NC(=O)Nc2ccc(-c3cn4c(n3)sc3cc(OCCN5CCOCC5)ccc34)cc2)no1 [Quizartinib] (10 µM)
0: all assays above

CC(C)(C)c1nc2c3cc[nH]c(=O)c3c3cc(F)ccc3c2[nH]1 [Pyridone 6] (10 µM)
0: all assays above

COC(=O)c1ccc2c(C(=Nc3ccc(N(C)C(=O)CN4CCN(C)CC4)cc3)c3ccccc3)c(O)[nH]c2c1 [Nintedanib] (2.5 µM)
0: all assays above

CCN(CCO)CCCOc1ccc2c(Nc3cc(CC(=O)Nc4cccc(F)c4)[nH]n3)ncnc2c1 [Barasertib-HQPA] (10 µM)
0: all assays above

Cc1cc(F)c(C(=O)Nc2cccc(-c3nncn3C(C)C)n2)cc1-n1cnc(C2CC2)c1 [Selonsertib] (10 µM)
0: all assays above

c1cc(OCCN2CCCCC2)cc(-c2n[nH]c3ccc(-c4nnc[nH]4)cc23)c1 [CC-401 (hydrochloride)] (10 µM)
0: all assays above

CCCCNc1ncc(-c2ccc(CN3CCOCC3)cn2)c(NC2CCC(O)CC2)n1 (stereo not drawn) (10 µM)
0: all assays above

COc1cc(OC)c(F)c(COc2cnc(Nc3cnn(CCO)c3)nc2)c1F (2.5 µM)
0: all assays above

Looked up by compound from the entries so far, 4 records:
CC(C)(C)c1nc2c3cc[nH]c(=O)c3c3cc(F)ccc3c2[nH]1 [Pyridone 6] (10 µM)
0: all assays above

COC(=O)c1ccc2c(C(=Nc3ccc(N(C)C(=O)CN4CCN(C)CC4)cc3)c3ccccc3)c(O)[nH]c2c1 [Nintedanib] (2.5 µM)
0: all assays above

Cc1cc(F)c(C(=O)Nc2cccc(-c3nncn3C(C)C)n2)cc1-n1cnc(C2CC2)c1 [Selonsertib] (10 µM)
0: all assays above

CCCCNc1ncc(-c2ccc(CN3CCOCC3)cn2)c(NC2CCC(O)CC2)n1 (stereo not drawn) (10 µM)
0: all assays above

(list continues)

CNC(=O)c1cccc(-c2ccc3c(N4CCOC[C@@H]4C)nc(N4CCOC[C@@H]4C)nc3n2)c1 [Vistusertib] (2.5 µM)
4: CDK7 | CDK9
0: ZAP70
1: YES1 | ZAK
2: CDK4

O=c1oc2c(O)c(O)cc3c(=O)oc4c(O)c(O)cc1c4c23 [Ellagic acid] (10 µM)
0: all assays above

CNC(=O)c1cccc2cc(Oc3ccnc4cc(OCC5(N)CC5)c(OC)cc34)ccc12 [Lucitanib] (10 µM)
0: all assays above

CN1CCN(C(=O)c2ccc(-c3ccc4c(C=O)c(O)ccc4c3)s2)CC1 (2.5 µM)
0: all assays above

CN1CCN(S(=O)(=O)c2ccc(-c3cnc(N)c(C(=O)Nc4cccnc4)n3)cc2)CC1 (10 µM)
0: all assays above

COc1cc(F)cc([C@@H](CO)NC(=O)[C@@H](C)N2Cc3ccc(-c4nc(NC5CCOCC5)ncc4Cl)cc3C2=O)c1 [ERK1/2 inhibitor 2] (10 µM)
0: all assays above

COc1cc(OC)cc(-c2cc3cnc(N)nc3nc2NC(=O)NC(C)(C)C)c1 (10 µM)
0: all assays above

O=C(/C=C/c1ccc(O)c(O)c1)c1ccc(O)cc1O [Butein] (10 µM)
1: CDK7
3: YES1
0: all other assays above

C=CC(=O)Nc1cccc(Nc2nc(Nc3ccc(OCCOC)cc3)ncc2F)c1 [Spebrutinib] (10 µM)
0: all assays above

C=CC(=O)N1CCN(CCCn2c(=O)c(-c3c(Cl)c(OC)cc(OC)c3Cl)cc3cnc(NC)nc32)CC1 (10 µM)
0: all assays above

C=CC(=O)N1C[C@H](Nc2ncnc3[nH]ccc23)CC[C@@H]1C [Ritlecitinib] (10 µM)
0: all assays above
